Measured values: patent US20080227863A1, “Organic Compounds” (Novartis AG, priority 2005, published 2008)
Some of these results come from one statement about several compounds together.

Test system: Trichostronqylus colubriformis
Test: In-vivo test against Trichostronqylus colubriformis in Mongolian gerbils on peroral administration
Conditions: T. colubriformis in Mongolian gerbils (Merones unquiculatus); 32 mg/kg p.o.; three days after treatment; Abbot's formula

N#CC(C#N)(COc1ccccc1Cl)NC(=O)c1ccc(OC(F)(F)F)cc1 [Compound 1.3, N-[2-(2-Chloro-phenoxy)-1,1-dicyano-ethyl]-4-trifluoromethoxy-benzamide]
efficacy (% reduction in worm numbers in comparison with a placebo treated group): more than 80%
